In patent US9630934B2, “Fumarate compounds, pharmaceutical compositions thereof, and methods of use” (priority 2015, dated 2017):
Some entries share one result that the patent states for a list of compounds.

Experiments:
porcine liver esterase = assay: Hydrolysis of fumarate compounds in vitro by porcine liver esterase; format: in vitro ADME; conditions: porcine liver esterase in PBS buffer pH 7.4, 25° C., ca. 24 h, HPLC
[1] = Stability of fumarate compounds in PBS buffer; format: physicochemical; conditions: PBS 50 mM, pH 7.4, 25° C., 60 min, HPLC

converted to MHF, monoester fumarates, and/or fumaric acid (porcine liver esterase) | stable in PBS buffer [1] | SMILES
> 65% | > 90% | COC(=O)/C=C/C(=O)OCC1NC(=O)NC1=O (stereo not shown) [Compound 1, O4-[(2,5-Dioxoimidazolidin-4-yl)methyl]O1-methyl (E)-but-2-enedioate]
> 65% | > 90% | CCOC(=O)/C=C/C(=O)OCC1NC(=O)NC1=O (stereo not shown) [Compound 2, O4-[(2,5-Dioxoimidazolidin-4-yl)methyl]O1-ethyl (E)-but-2-enedioate]
> 65% | > 90% | CC(C)OC(=O)/C=C/C(=O)OCC1NC(=O)NC1=O (stereo not shown) [Compound 3, O1-[(2,5-Dioxoimidazolidin-4-yl)methyl]O4-isopropyl (E)-but-2-enedioate]
– | > 90% | CC(C)(C)OC(=O)/C=C/C(=O)OCC1NC(=O)NC1=O (stereo not shown) [Compound 4, O4-tert-Butyl O1-[(2,5-dioxoimidazolidin-4-yl)methyl](E)-but-2-enedioate]
> 65% | > 90% | O=C(O)/C=C/C(=O)OCC1NC(=O)NC1=O (stereo not shown) [Compound 5, (E)-4-[(2,5-Dioxoimidazolidin-4-yl)methoxy]-4-oxo-but-2-enoic acid]
> 65% | > 90% | CC(C)C(=O)OCOC(=O)/C=C/C(=O)OCC1NC(=O)NC1=O (stereo not shown) [Compound 6, O1-[(2,5-Dioxoimidazolidin-4-yl)methyl]O4-(2-methylpropanoyloxymethyl) (E)-but-2-enedioate]
> 65% | > 90% | Cc1oc(=O)oc1COC(=O)/C=C/C(=O)OCC1NC(=O)NC1=O (stereo not shown) [Compound 7, O4-[(2,5-Dioxoimidazolidin-4-yl)methyl]O1-[(5-methyl-2-oxo-1,3-dioxol-4-yl)methyl](E)-but-2-enedioate]
> 65% | > 90% | O=C1NC(=O)C(COC(=O)/C=C/C(=O)OCC2NC(=O)NC2=O)N1 (stereo not shown) [Compound 8, Bis[(2,5-dioxoimidazolidin-4-yl)methyl](E)-but-2-enedioate]
> 65% | > 90% | COC(=O)/C=C/C(=O)OCC1COC(=O)N1 (stereo not shown) [Compound 9, O1-Methyl O4-[(2-oxooxazolidin-4-yl)methyl](E)-but-2-enedioate]
> 65% | > 90% | CCOC(=O)/C=C/C(=O)OCC1COC(=O)N1 (stereo not shown) [Compound 10, O1-Ethyl O4-[(2-oxooxazolidin-4-yl)methyl](E)-but-2-enedioate]
> 65% | > 90% | CC(C)OC(=O)/C=C/C(=O)OCC1COC(=O)N1 (stereo not shown) [Compound 11, O4-Isopropyl O1-[(2-oxooxazolidin-4-yl)methyl](E)-but-2-enedioate]
– | > 90% | CC(C)(C)OC(=O)/C=C/C(=O)OCC1COC(=O)N1 (stereo not shown) [Compound 12, O4-tert-Butyl O1-[(2-oxooxazolidin-4-yl)methyl](E)-but-2-enedioate]
> 65% | > 90% | O=C(O)/C=C/C(=O)OCC1COC(=O)N1 (stereo not shown) [Compound 13, (E)-4-Oxo-4-[(2-oxooxazolidin-4-yl)methoxy]but-2-enoic acid]
> 65% | > 90% | Cc1oc(=O)oc1COC(=O)/C=C/C(=O)OCC1COC(=O)N1 (stereo not shown) [Compound 14, O1-[(5-Methyl-2-oxo-1,3-dioxol-4-yl)methyl]O4-[(2-oxooxazolidin-4-yl)methyl](E)-but-2-enedioate]
> 65% | > 90% | CC(C)C(=O)OCOC(=O)/C=C/C(=O)OCC1COC(=O)N1 (stereo not shown) [Compound 15, O4-(2-Methylpropanoyloxymethyl) O1-[(2-oxooxazolidin-4-yl)methyl](E)-but-2-enedioate]
> 65% | > 90% | COC(=O)/C=C/C(=O)OCC1COC(=O)N1C (stereo not shown) [Compound 17, O1-Methyl O4-[(3-methyl-2-oxo-oxazolidin-4-yl)methyl](E)-but-2-enedioate]
> 65% | > 90% | COC(=O)/C=C/C(=O)OCC1CNC(=O)O1 (stereo not shown) [Compound 18, O1-Methyl O4-[(2-oxooxazolidin-5-yl)methyl](E)-but-2-enedioate]
> 65% | > 90% | CCOC(=O)/C=C/C(=O)OCC1CNC(=O)O1 (stereo not shown) [Compound 19, O1-Ethyl O4-[(2-oxooxazolidin-5-yl)methyl](E)-but-2-enedioate]
> 65% | > 90% | CC(C)OC(=O)/C=C/C(=O)OCC1CNC(=O)O1 (stereo not shown) [Compound 20, O4-Isopropyl O1-[(2-oxooxazolidin-5-yl)methyl](E)-but-2-enedioate]
– | > 90% | CC(C)(C)OC(=O)/C=C/C(=O)OCC1CNC(=O)O1 (stereo not shown) [Compound 21, O4-tert-Butyl O1-[(2-oxooxazolidin-5-yl)methyl](E)-but-2-enedioate]
> 65% | > 90% | O=C(O)/C=C/C(=O)OCC1CNC(=O)O1 (stereo not shown) [Compound 22, (E)-4-Oxo-4-[(2-oxooxazolidin-5-yl)methoxy]but-2-enoic acid]
> 65% | > 90% | Cc1oc(=O)oc1COC(=O)/C=C/C(=O)OCC1CNC(=O)O1 (stereo not shown) [Compound 23, O1-[(5-Methyl-2-oxo-1,3-dioxol-4-yl)methyl]O4-[(2-oxooxazolidin-5-yl)methyl](E)-but-2-enedioate]
> 65% | > 90% | CC(C)C(=O)OCOC(=O)/C=C/C(=O)OCC1CNC(=O)O1 (stereo not shown) [Compound 24, O4-(2-Methylpropanoyloxymethyl) O1-[(2-oxooxazolidin-5-yl)methyl](E)-but-2-enedioate]
> 65% | > 90% | O=C(/C=C/C(=O)OCC1CNC(=O)O1)OCC1CNC(=O)O1 (stereo not shown) [Compound 25, Bis[(2-oxooxazolidin-5-yl)methyl](E)-but-2-enedioate]
> 65% | > 90% | COC(=O)/C=C/C(=O)OC[C@H]1CN(C)C(=O)O1 [Compound 26, O1-Methyl O4-[[(5R)-3-methyl-2-oxo-oxazolidin-5-yl]methyl](E)-but-2-enedioate]
> 65% | > 90% | COC(=O)/C=C/C(=O)O[C@H]1CC(=O)N(C)C1=O [Compound 27, O1-Methyl O4-[(3S)-1-methyl-2,5-dioxo-pyrrolidin-3-yl](E)-but-2-enedioate]
